Patent US9050347B2, “1,2,4-oxadiazole derivatives as drugs modulating the GLP-1 peptide receptor” (VIVIABIOTECH, S.L., priority 2011, dated 2015)
Some entries share one result that the patent states for a list of compounds. For at least one compound, name, drawing or mass did not settle the structure.

Target: T1, GLP-1 receptor (Rattus norvegicus, UniProt P32301)
T1 construct: All the in vivo experiments were performed using male Wistar rats; from tissue; host or cells: whole animal (male Wistar rats, intraperitoneal dosing)
T1 sequence (P32301 22-463): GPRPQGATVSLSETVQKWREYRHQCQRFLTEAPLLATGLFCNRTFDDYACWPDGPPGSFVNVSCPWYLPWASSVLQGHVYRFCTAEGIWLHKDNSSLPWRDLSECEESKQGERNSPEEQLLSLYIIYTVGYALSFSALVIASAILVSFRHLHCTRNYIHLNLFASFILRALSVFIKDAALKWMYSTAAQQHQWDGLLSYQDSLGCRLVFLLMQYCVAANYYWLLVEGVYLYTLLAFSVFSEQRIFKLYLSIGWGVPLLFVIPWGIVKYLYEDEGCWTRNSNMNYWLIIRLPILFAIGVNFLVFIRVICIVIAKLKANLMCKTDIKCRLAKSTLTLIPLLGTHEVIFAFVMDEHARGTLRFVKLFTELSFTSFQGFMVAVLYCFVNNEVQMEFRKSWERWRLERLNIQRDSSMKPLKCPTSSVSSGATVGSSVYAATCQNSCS
Test: Intake control assay (enhancement or antagonism of Exendin 4-induced reduction of food intake)
Format: in vivo, male Wistar rats
Details: rats fasted 24 hours, intraperitoneal, with Exendin 4 dose causing 50% of the maximum effect; FIG. 1

With `FC(F)(F)c1ccc(-c2noc(CN3CCCC[C@H]3CCc3ccccn3)n2)cc1` [Compound C5, 5-[[(2S)-2-(2-pyridin-2-ylethyl)piperidin-1-yl]methyl]-3-[4-(trifluoromethyl)phenyl]-1,2,4-oxadiazole] the “effect on the decrease of food intake (satiety) induced by the GLP-1 receptor agonist Exendin 4” value (from here on “effect on the decrease of food intake”) was “enhance”.

`FC(F)(F)c1ccc(-c2noc(CN3CCC(OCc4ccccn4)CC3)n2)cc1` [Compound C10, 5-[[4-(pyridin-2-ylmethoxy)piperidin-1-yl]methyl]-3-[4-(trifluoromethyl)phenyl]-1,2,4-oxadiazole] was tested, and the “effect on the decrease of food intake” value was “antagonize”.

For `COc1ccc(OC[C@H]2CCCN(Cc3nc(-c4ccc(C(F)(F)F)cc4)no3)C2)cc1` [Compound C7, 5-[[(3S)-3-[(4-methoxyphenoxy)methyl]piperidin-1-yl]methyl]-3-[4-(trifluoromethyl)phenyl]-1,2,4-oxadiazole], the “effect on the decrease of food intake” value was “antagonize”.

With `O=C(CCc1ccccc1)[C@@H]1CCCN(Cc2nc(-c3ccc(C(F)(F)F)cc3)no2)C1` [Compound C1, 3-phenyl-1-[(3R)-1-[[3-[4-(trifluoromethyl)phenyl]-1,2,4-oxadiazol-5-yl]methyl]piperidin-3-yl]propan-1-one] the “effect on the decrease of food intake” value was “enhance”.

`c1ccc(Cc2noc(CN3CCC(N4CCc5ccccc5C4)CC3)n2)cc1` [Compound C11, 3-benzyl-5-[[4-(3,4-dihydro-1H-isoquinolin-2-yl)piperidin-1-yl]methyl]-1,2,4-oxadiazole] was tested, and the “effect on the decrease of food intake” value was “antagonize”.

For `NC(=O)C1CCN(Cc2nc(-c3ccc(C(F)(F)F)cc3)no2)CC1` [Compound C4, 1[[3-[4-(trifluoromethyl)phenyl]-1,2,4-oxadiazol-5-yl]methyl]piperidin-4-carboxamide], the “effect on the decrease of food intake” value was “enhance”.

In the case of `FC(F)(F)c1ccc(-c2noc(CN3CCCC(CN4CCOCC4)C3)n2)cc1` (centres unmarked) [Compound C6, 4-[[1[[3-[4-(trifluoromethyl)phenyl]-1,2,4-oxadiazol-5-yl]methyl]piperidin-3-yl]methyl]morpholine], the “effect on the decrease of food intake” value is reported as “enhance”.

For `FC(F)(F)c1ccc(-c2noc(CN3CCC(N4CCSCC4)CC3)n2)cc1` [Compound C8, 5-[(4-thiomorpholin-4-ylpiperidin-1-yl)methyl]-3-[4-(trifluoromethyl)phenyl]-1,2,4-oxadiazole], the “effect on the decrease of food intake” value was “antagonize”.

With `O=C(c1ccccc1)[C@@H]1CCCN(Cc2nc(-c3ccc(C(F)(F)F)cc3)no2)C1` [Compound C9] the “effect on the decrease of food intake” value was “antagonize”.

`CC(=O)NCC[C@@H]1CCCCN1Cc1nc(-c2ccc(C(F)(F)F)cc2)no1` [Compound C3, N-[2-[(2S)-1-[[3-[4-(trifluoromethyl)phenyl]-1,2,4-oxadiazol-5-yl]methyl]piperidin-2-yl]ethyl]acetamide] was tested, and the “effect on the decrease of food intake” value was “enhance”.

`NC(=O)[C@@H]1CCCN(Cc2nc(-c3ccc(C(F)(F)F)cc3)no2)C1` [Compound C12] was tested, and the “effect on the decrease of food intake” value was “antagonize”.
